From PMC8260841
Results are given in words; binding and its absence hold for the method and conditions named. In cells and extracts the contact can be indirect. A result given as binding can be weak or reduced; the word gives no strength.

Protein sequences, listed by entry. Tags and fused reporters are not part of them. Lines headed by an entry give the natural chain unless they say otherwise; changes in a name come on top.
UniProt P11308: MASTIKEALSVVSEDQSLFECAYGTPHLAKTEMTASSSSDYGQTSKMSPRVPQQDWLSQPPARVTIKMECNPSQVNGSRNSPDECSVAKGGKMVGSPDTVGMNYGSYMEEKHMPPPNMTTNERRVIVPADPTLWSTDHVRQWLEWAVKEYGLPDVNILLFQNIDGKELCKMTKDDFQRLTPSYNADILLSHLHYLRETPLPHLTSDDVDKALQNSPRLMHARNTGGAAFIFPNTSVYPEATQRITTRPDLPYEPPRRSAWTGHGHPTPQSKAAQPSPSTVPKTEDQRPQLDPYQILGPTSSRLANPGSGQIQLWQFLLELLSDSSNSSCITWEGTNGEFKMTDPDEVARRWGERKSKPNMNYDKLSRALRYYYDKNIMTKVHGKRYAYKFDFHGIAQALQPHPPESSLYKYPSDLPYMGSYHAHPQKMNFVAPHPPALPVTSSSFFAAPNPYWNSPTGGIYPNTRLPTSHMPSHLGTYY
UniProt O94953: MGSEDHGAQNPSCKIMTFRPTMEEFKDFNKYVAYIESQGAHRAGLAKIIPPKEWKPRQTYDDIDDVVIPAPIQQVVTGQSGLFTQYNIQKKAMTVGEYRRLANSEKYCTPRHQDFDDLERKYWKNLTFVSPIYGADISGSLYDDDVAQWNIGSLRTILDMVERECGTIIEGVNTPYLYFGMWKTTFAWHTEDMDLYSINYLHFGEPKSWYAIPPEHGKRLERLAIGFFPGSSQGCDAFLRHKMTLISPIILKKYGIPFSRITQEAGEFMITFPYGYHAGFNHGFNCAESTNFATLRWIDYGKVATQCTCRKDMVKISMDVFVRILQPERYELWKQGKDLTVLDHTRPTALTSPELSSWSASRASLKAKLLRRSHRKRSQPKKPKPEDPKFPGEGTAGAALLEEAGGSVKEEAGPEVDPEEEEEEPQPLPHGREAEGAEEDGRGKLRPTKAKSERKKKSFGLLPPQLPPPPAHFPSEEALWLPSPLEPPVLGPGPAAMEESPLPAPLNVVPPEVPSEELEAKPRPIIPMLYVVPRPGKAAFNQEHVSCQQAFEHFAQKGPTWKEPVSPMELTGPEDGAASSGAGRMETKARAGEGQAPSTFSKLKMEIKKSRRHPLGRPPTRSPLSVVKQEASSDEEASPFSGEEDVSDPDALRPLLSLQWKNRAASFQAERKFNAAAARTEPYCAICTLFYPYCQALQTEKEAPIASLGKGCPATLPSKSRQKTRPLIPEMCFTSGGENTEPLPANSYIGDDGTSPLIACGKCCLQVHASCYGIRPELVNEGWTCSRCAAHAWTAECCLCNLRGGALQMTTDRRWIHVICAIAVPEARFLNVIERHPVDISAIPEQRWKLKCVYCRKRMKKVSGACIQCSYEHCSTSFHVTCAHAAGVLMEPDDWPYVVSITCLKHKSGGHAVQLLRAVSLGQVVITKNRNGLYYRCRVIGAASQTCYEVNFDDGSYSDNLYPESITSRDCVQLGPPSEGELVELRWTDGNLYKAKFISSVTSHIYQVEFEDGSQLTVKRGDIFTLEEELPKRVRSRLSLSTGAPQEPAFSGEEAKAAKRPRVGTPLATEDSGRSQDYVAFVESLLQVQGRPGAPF

Target: FLAG-tagged ERG1 (ETS-related gene 1) (UniProt P11308)
Test: co-IP; HEK293 cells transfected with expression constructs (FLAG-ERG1, Myc-KDM4B); immunoprecipitation with anti-FLAG or IgG; lysates in RIPA buffer (50 mM Tris pH7.4, 150 mM NaCl, 1% Triton X-100), Protein A/G-plus agarose beads, Western blot

Myc-tagged KDM4B (from UniProt O94953 1-1096) (enzyme)
binding: binds
